Binding data for 1 molecule are collected here from doi:10.1101/728410.

Sequences of proteins named here, by UniProt entry; tags and fusion partners are left off. A change or cut given only in a name is not applied to a line headed by its entry. A line that says so, or that is headed by a name, gives the form on record, which may keep a tag or linker.
shank2 R240K mutant (reconstituted expression) (Q9QX74, form named): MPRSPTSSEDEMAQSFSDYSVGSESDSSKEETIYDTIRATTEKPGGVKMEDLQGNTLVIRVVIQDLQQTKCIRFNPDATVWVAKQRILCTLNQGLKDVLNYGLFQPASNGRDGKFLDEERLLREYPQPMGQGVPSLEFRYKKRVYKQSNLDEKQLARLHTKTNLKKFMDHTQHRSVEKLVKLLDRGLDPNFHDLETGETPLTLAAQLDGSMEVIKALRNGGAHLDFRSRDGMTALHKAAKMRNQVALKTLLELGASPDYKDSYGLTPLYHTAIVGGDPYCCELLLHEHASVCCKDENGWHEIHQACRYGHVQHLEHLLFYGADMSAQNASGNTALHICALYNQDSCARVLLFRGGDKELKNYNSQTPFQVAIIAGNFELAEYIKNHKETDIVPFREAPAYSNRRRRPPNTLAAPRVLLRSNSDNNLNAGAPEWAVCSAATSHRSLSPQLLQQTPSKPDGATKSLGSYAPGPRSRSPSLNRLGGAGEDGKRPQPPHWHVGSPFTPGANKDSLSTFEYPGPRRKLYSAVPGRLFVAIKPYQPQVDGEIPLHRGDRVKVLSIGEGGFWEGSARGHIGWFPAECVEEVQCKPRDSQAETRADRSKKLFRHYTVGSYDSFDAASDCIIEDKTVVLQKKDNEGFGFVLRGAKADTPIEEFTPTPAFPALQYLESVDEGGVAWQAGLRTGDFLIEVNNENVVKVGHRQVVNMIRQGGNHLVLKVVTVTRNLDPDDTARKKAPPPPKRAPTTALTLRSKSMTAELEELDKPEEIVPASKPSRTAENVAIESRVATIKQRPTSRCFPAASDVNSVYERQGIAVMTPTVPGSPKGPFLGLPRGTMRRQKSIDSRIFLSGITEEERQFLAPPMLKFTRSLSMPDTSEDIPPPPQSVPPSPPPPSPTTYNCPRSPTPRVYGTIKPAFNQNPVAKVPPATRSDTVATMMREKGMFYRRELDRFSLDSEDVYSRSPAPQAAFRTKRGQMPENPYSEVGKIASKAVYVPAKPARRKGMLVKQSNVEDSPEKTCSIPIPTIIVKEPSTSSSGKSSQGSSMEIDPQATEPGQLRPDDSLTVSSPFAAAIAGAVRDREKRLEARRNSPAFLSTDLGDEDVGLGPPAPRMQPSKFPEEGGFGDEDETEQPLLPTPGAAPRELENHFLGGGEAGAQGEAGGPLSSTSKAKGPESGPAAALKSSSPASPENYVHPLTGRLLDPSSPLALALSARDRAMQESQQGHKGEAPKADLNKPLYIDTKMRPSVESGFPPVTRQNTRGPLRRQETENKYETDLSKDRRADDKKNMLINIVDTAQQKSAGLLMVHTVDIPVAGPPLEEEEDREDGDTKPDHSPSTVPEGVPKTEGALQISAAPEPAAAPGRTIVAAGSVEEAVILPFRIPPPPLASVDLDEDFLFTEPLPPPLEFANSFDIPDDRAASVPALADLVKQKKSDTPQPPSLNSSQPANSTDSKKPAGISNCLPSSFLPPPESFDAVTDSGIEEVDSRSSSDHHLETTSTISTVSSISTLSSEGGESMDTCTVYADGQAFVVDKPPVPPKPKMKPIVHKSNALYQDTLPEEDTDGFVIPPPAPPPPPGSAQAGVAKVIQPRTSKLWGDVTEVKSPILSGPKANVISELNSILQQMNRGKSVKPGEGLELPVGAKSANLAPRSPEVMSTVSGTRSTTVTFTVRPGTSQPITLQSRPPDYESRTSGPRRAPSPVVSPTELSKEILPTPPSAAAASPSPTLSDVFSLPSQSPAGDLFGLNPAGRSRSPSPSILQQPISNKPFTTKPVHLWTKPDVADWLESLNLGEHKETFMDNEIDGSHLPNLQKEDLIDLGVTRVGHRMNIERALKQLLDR
shank2 WT (reconstituted expression) (Q9QX74, form named): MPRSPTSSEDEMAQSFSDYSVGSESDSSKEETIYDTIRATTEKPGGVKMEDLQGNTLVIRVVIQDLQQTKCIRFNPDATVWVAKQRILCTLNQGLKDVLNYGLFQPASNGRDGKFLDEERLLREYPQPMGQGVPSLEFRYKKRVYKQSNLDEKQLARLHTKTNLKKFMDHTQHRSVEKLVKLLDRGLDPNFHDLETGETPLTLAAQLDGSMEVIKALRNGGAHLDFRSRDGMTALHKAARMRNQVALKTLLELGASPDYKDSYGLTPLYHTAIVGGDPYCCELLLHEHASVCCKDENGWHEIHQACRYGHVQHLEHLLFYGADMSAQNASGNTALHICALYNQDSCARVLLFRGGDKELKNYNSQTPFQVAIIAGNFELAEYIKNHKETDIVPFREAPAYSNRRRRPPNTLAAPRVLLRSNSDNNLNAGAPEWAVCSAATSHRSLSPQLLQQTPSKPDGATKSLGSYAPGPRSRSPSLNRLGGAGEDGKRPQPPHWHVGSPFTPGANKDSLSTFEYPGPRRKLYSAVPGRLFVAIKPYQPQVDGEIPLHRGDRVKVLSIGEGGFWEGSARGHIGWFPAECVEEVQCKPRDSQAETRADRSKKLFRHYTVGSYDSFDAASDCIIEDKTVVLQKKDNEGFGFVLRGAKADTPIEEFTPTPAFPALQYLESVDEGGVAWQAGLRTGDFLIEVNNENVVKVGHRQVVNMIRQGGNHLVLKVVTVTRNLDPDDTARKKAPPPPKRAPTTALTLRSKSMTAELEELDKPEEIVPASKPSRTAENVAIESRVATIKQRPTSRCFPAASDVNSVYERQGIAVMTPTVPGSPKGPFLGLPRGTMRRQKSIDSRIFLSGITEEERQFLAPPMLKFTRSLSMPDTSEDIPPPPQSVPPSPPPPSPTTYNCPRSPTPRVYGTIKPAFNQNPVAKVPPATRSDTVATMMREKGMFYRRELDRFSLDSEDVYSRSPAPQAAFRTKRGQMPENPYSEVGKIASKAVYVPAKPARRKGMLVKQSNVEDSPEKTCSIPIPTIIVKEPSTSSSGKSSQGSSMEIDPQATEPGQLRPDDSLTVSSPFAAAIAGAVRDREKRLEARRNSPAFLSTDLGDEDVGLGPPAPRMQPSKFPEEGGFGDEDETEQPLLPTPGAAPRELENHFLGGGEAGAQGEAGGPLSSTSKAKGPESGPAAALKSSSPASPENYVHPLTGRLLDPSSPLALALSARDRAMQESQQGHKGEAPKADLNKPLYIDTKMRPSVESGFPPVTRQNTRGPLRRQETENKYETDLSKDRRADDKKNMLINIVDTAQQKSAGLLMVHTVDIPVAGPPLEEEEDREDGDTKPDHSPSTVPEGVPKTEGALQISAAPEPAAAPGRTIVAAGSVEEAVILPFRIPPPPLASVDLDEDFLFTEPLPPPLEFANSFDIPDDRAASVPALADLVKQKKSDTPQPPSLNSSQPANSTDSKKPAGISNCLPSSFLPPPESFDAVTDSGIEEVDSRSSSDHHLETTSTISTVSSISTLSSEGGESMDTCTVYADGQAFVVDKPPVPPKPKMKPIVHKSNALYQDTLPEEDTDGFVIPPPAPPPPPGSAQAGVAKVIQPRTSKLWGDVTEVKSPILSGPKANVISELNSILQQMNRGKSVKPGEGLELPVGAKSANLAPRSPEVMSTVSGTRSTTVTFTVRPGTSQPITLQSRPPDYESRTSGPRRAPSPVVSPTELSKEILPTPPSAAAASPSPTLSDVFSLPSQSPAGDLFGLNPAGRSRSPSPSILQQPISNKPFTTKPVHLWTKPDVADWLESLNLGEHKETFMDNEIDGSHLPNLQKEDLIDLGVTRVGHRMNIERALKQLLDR

For experiment [1], the target named is shank2 R240K mutant (reconstituted expression) (UniProt Q9QX74). Kind of experiment: co-IP.
Experiment [2] addresses shank2 WT (reconstituted expression) (UniProt Q9QX74). Kind of experiment: co-IP.

These are yes or no findings as the source states them, for the method shown. Binding seen in cells or lysates may run through a third protein. Some binding calls cover weakened binding; strength is not graded here.

B1: RIN1 (endogenous) (protein, UniProt Q13671 1-783)
chain: MESPGESGAGSPGAPSPSSFTTGHLAREKPAQDPLYDVPNASGGQAGGPQRPGRVVSLRERLLLTRPVWLQLQANAAAALHMLRTEPPGTFLVRKSNTRQCQALCMRLPEASGPSFVSSHYILESPGGVSLEGSELMFPDLVQLICAYCHTRDILLLPLQLPRAIHHAATHKELEAISHLGIEFWSSSLNIKAQRGPAGGPVLPQLKARSPQELDQGTGAALCFFNPLFPGDLGPTKREKFKRSFKVRVSTETSSPLSPPAVPPPPVPVLPGAVPSQTERLPPCQLLRRESSVGYRVPAGSGPSLPPMPSLQEVDCGSPSSSEEEGVPGSRGSPATSPHLGRRRPLLRSMSAAFCSLLAPERQVGRAAAALMQDRHTAAGQLVQDLLTQVRAGPEPQELQGIRQALSRARAMLSAELGPEKLLSPKRLEHVLEKSLHCSVLKPLRPILAARLRRRLAADGSLGRLAEGLRLARAQGPGAFGSHLSLPSPVELEQVRQKLLQLLRTYSPSAQVKRLLQACKLLYMALRTQEGEGAGADEFLPLLSLVLAHCDLPELLLEAEYMSELLEPSLLTGEGGYYLTSLSASLALLSGLGQAHTLPLSPVQELRRSLSLWEQRRLPATHCFQHLLRVAYQDPSSGCTSKTLAVPPEASIATLNQLCATKFRVTQPNTFGLFLYKEQGYHRLPPGALAHRLPTTGYLVYRRAEWPETQGAVTEEEGSGQSEARSRGEEQGCQGDGDAGVKASPRDIREQSETTAEGGQGQAQEGPAQPGEPEAEGSRAAEE
With B1, the binding result in experiment [1] and in experiment [2] was “binds” throughout.
